From article PMC11170731
Results are given in words; binding and its absence hold for the method and conditions named. In cells and extracts the contact can be indirect. Some binding calls cover weakened binding; strength is not graded here. Where a sequence is shown, tags or fusion partners need not be part of it.

Target: T1, MORF-tagged wild-type Trm734 (S. cerevisiae) (UniProt Q08924)
T1 sequence: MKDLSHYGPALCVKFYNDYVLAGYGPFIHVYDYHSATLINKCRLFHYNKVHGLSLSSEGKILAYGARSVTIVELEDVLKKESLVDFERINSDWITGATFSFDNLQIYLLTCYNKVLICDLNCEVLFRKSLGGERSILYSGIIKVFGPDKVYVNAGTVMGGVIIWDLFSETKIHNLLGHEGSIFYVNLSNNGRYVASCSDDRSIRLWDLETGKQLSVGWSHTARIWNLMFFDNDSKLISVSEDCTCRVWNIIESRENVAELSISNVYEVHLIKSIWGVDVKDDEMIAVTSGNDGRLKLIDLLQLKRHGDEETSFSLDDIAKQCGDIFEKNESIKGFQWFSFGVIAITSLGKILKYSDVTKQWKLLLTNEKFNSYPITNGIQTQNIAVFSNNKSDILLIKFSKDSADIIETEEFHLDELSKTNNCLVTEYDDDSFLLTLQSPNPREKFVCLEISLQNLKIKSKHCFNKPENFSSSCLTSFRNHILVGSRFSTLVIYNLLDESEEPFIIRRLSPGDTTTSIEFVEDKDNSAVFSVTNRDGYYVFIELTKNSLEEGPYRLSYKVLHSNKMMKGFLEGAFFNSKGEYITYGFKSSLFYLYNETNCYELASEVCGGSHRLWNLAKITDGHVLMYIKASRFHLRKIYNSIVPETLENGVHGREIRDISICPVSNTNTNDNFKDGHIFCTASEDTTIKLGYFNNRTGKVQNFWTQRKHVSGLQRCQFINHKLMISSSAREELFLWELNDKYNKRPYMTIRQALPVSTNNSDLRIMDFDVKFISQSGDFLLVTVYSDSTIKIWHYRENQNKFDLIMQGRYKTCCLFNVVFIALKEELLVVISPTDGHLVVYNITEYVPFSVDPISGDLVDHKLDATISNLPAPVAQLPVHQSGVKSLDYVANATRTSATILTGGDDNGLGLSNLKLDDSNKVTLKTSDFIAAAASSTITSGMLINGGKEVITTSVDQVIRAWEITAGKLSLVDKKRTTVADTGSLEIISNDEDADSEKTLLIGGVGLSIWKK
Experiment: co-IP; MORF-tagged Trm734 variants coexpressed with Trm7-9myc in yeast; MORF-tagged proteins purified from crude extracts with IgG-Sepharose beads (bind the ZZ domain), eluted in SDS sample buffer; immunoblot with anti-protein A and anti-c-myc

binding: binds
B1: Trm7-9myc (enzyme, UniProt P38238 1-310)
chain: MGKSSKDKRDLYYRKAKEQGYRARSAFKLLQLNDQFHFLDDPNLKRVVDLCAAPGSWSQVLSRKLFDESPSSDKEDRKIVSVDLQPMSPIPHVTTLQADITHPKTLARILKLFGNEKADFVCSDGAPDVTGLHDLDEYVQQQLIMSALQLTACILKKGGTFVAKIFRGRDIDMLYSQLGYLFDKIVCAKPRSSRGTSLEAFIVCLGYNPPSNWTPKLDVNTSVDEFFQGCFLNKLCISDKLSHWNEEERNIAEFMACGSLQSFDSDATYHDLPSSVAGTSSSLDPVQSPTNPPYKKALELKRSGKLTRSV
